Source: the supplement of paper PMC10849652
The list shows a part of the results.

Protein sequences, listed by entry. Tags and fused reporters are not part of them. Lines headed by an entry give the natural chain unless they say otherwise; changes in a name come on top.
UniProt Q99447: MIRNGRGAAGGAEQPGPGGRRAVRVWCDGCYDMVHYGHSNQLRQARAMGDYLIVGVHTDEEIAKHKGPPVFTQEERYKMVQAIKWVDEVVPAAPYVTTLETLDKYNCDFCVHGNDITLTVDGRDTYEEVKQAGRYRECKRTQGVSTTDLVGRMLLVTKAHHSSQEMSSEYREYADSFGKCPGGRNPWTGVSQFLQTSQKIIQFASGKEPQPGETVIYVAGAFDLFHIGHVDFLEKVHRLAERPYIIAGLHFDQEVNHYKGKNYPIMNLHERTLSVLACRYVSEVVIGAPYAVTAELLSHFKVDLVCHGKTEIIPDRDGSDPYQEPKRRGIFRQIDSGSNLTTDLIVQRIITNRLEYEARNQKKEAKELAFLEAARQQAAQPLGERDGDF
UniProt Q13310, whole entry, looked up: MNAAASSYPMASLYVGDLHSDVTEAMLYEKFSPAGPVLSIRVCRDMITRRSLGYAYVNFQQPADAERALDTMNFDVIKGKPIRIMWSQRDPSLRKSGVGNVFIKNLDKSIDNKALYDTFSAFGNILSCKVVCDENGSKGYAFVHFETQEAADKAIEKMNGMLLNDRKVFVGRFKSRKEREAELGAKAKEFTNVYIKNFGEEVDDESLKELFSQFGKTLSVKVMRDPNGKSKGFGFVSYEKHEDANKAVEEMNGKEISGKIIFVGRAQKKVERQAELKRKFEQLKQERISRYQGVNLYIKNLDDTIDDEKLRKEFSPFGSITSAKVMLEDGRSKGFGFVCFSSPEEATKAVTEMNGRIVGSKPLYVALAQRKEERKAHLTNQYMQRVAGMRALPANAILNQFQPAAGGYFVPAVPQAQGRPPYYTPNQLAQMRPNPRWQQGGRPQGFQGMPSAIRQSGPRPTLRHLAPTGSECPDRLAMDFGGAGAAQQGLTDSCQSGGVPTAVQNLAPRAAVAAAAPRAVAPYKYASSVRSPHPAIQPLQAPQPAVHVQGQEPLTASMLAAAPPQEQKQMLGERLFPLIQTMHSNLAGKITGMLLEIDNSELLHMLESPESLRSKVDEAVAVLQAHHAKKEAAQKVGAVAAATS
UniProt Q9BVG4: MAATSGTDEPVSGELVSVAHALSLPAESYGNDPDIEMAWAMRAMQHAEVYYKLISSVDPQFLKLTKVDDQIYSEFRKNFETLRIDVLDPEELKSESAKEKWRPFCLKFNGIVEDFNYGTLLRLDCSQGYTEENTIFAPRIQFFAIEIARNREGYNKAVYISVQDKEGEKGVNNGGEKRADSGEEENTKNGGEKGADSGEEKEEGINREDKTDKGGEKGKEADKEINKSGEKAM
UniProt O00541, whole entry, looked up: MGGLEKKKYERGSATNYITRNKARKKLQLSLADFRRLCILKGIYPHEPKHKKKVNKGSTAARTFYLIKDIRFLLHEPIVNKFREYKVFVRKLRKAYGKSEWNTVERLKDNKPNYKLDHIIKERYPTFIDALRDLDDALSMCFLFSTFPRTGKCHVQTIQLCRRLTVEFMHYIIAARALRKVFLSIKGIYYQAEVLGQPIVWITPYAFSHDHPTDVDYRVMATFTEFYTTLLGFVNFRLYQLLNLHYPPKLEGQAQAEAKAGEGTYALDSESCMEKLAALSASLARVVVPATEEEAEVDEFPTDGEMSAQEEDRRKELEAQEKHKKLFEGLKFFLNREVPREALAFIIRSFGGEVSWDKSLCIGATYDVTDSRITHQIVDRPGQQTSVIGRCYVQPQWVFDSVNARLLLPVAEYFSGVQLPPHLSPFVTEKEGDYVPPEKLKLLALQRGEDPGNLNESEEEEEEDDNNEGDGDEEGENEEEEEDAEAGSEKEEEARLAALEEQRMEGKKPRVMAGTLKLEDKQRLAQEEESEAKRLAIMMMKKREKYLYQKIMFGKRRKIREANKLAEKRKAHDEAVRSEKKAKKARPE
UniProt O43933: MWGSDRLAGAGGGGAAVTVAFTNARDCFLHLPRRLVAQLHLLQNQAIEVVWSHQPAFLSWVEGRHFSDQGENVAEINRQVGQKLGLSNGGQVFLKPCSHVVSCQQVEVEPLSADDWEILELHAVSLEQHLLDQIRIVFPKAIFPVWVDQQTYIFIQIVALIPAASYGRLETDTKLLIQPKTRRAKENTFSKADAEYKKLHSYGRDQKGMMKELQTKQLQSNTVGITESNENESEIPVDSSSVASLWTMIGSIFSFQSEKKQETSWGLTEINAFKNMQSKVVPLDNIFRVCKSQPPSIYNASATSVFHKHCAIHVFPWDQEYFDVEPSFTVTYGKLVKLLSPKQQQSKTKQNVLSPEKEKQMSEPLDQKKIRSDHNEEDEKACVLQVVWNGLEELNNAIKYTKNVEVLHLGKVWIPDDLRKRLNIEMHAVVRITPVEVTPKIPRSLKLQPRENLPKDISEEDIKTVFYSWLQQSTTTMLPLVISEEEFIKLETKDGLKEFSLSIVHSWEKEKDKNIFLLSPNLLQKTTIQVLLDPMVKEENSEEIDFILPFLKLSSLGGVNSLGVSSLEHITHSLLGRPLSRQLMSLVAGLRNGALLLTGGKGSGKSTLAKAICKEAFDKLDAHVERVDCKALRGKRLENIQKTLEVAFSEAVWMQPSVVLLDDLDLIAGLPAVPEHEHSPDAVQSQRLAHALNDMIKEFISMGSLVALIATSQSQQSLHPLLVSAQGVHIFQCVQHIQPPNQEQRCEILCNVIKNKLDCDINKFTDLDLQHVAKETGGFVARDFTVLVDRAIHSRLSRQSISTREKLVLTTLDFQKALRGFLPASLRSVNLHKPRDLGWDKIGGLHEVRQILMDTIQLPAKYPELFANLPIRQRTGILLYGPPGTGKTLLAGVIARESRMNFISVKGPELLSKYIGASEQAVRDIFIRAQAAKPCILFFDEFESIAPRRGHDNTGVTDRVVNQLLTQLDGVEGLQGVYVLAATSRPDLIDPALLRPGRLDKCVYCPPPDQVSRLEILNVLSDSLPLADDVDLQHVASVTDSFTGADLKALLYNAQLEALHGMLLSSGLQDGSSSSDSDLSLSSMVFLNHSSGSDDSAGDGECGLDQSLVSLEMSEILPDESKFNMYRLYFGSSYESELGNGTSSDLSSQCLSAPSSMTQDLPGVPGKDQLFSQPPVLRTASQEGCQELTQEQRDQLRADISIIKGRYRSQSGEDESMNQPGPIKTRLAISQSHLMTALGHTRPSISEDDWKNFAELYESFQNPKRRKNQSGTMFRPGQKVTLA
UniProt Q8NBM8: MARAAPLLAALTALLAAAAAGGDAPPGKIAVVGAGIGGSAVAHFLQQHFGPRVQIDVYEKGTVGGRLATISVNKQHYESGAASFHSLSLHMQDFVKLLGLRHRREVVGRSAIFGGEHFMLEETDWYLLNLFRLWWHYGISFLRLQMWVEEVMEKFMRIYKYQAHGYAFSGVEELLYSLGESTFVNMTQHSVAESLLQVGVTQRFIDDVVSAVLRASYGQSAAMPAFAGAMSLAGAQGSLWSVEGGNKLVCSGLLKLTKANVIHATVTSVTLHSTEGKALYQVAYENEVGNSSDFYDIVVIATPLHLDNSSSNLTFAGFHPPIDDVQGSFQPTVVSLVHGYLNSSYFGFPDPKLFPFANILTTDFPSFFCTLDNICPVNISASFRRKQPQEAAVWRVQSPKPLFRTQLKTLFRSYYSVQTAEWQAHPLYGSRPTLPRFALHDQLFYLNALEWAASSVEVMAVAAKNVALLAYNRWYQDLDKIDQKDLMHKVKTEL
UniProt Q13177, whole entry, looked up: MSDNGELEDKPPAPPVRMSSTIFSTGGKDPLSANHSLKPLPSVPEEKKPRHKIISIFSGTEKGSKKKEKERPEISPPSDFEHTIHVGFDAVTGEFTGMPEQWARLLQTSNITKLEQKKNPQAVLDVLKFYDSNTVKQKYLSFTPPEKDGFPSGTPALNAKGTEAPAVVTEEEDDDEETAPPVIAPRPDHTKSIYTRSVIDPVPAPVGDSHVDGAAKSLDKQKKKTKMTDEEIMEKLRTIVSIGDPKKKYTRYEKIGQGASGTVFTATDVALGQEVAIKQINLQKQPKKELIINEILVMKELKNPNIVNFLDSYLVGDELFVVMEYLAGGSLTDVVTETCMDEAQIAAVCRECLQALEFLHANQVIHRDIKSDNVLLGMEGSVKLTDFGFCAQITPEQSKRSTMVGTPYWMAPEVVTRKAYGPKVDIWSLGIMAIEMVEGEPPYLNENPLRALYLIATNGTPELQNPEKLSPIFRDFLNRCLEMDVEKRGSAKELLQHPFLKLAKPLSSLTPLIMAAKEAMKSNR
UniProt P22234: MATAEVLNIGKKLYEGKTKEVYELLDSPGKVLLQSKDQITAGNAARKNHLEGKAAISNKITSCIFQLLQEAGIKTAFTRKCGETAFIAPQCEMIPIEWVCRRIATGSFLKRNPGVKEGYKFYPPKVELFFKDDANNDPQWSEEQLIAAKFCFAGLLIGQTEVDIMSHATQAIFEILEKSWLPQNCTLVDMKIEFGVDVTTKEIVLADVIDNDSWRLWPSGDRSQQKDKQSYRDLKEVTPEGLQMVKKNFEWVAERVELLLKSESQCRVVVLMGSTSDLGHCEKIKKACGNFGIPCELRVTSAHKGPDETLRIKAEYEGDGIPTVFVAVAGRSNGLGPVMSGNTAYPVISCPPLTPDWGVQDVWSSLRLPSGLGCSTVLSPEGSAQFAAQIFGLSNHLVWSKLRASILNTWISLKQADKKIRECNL
UniProt Q96GD0: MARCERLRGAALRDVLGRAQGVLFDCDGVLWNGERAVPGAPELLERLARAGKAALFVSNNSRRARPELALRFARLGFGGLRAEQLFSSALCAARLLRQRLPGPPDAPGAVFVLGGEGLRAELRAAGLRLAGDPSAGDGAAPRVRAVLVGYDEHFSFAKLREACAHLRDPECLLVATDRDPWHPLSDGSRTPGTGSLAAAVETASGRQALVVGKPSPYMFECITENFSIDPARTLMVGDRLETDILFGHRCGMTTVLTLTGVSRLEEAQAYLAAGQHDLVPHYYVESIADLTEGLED
UniProt P43034: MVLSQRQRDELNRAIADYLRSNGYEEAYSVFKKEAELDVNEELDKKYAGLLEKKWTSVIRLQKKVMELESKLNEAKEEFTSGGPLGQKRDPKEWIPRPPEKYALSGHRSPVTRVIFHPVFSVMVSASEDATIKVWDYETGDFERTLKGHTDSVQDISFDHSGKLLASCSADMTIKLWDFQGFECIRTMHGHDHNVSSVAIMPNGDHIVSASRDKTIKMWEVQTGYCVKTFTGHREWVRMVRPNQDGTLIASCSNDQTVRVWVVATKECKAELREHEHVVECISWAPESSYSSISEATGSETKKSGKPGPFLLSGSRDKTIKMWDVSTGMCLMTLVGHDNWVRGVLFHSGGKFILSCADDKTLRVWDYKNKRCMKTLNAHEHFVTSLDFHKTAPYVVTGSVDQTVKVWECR
UniProt Q15118, whole entry, looked up: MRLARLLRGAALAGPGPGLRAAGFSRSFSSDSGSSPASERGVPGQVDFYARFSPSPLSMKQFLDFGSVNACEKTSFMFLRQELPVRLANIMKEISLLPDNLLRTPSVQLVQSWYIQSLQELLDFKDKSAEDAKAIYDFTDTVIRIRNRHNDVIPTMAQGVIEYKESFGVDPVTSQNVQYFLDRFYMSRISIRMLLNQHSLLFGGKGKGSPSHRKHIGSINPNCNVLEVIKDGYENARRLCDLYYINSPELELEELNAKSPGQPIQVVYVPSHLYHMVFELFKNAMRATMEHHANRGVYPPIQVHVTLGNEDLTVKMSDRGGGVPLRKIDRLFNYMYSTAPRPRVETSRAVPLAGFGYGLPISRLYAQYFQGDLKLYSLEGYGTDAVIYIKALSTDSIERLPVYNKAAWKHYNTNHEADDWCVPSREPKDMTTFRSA
UniProt Q9UNF0: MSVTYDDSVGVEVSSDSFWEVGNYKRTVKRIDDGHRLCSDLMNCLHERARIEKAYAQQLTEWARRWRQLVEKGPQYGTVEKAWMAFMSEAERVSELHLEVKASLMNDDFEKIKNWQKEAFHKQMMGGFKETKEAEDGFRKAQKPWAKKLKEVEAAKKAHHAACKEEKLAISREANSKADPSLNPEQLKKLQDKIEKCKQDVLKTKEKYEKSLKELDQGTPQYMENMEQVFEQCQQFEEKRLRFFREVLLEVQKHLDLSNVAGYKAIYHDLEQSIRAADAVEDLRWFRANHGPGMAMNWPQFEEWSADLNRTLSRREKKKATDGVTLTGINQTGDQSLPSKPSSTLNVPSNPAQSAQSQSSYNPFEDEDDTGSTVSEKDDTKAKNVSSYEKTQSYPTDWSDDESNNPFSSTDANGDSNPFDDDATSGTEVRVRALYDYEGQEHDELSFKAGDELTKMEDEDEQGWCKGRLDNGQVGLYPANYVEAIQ
UniProt Q9BTK6, whole entry, looked up: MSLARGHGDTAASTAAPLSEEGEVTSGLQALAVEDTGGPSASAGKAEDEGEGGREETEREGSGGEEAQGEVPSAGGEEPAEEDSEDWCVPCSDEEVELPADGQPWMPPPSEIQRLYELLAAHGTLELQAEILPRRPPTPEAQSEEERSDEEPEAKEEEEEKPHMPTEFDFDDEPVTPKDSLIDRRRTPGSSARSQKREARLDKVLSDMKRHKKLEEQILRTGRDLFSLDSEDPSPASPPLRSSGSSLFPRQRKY

Key:
Assay in all cases: log2 fold change, soluble protein after heating vs DMSO (PISA); higher = thermal stabilisation; K562 cells, 10 uM, 30 min; active = over 0.2 and 3.5 SD of the protein, either way, in both replicates (recomputed)
[1] = compound: CC[C@@H]1C(=O)N(C)c2cnc(Nc3ccc(C(=O)NC4CCN(C)CC4)cc3OC)nc2N1C1CCCC1
Summary of the method: (§1)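 Aliquots of K562 cells (2×10^6 cells/mL) treated with 10 μM compound for 30 min were heated for 3 min over 48°C-58°C. After pooling and extraction in PBS with 0.5% NP-40 at 4°C, soluble protein from a 21,000xg, 90 min spin was quantified by TMTpro 16plex LC-MS/MS with channel sums equalised. Thermal stability is expressed against control samples, from duplicates, as a log2 fold change.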

volasertib = compound: CC[C@@H]1C(=O)N(C)c2cnc(Nc3ccc(C(=O)N[C@H]4CC[C@H](N5CCN(CC6CC6)CC5)CC4)cc3OC)nc2N1C(C)C [volasertib]
Summary of the method: as §1

[2] = compound: CC[C@H](C)N1C=C(C2=C(C=C(C=C21)C3=CN=C(C=C3)N4CCNCC4)C(=O)NCC5=C(C=C(NC5=O)C)C)C
Summary of the method: as §1

epoxomicin = compound: CC[C@H](C)[C@@H](C(=O)N[C@@H]([C@@H](C)O)C(=O)N[C@@H](CC(C)C)C(=O)[C@]1(CO1)C)NC(=O)[C@H]([C@@H](C)CC)N(C)C(=O)C [epoxomicin]
Summary of the method: as §1

[3] = compound: CCn1c(C(=O)N(C2CC2)C2CC2)cc2c3c(ncn3C)c(Nc3cc(C)n(C)n3)nc21
Summary of the method: as §1

[4] = compound: CCn1cc(-c2ccnc3[nH]c(-c4cccc(CN(C)C)c4)cc23)c(-c2ccc(NC(=O)N(C)C)cc2)n1
Summary of the method: as §1

[5] = compound: CN(C)CC(=O)Nc1ccc2[nH]c(=O)c3ccccc3c2c1
Summary of the method: as §1

rosiglitazone = compound: CN(CCOC1=CC=C(C=C1)C[C@H]2C(=O)NC(=O)S2)C3=CC=CC=N3 (racemic) [rosiglitazone]
Summary of the method: as §1

[6] = compound: CN1C2=C(C3=C1C(=O)N(N=C3)CC4=CC(=CC=C4)N)SC(=C2)S(=O)C
Summary of the method: as §1

[7] = compound: CN1CCC(CNc2ccc3ncc(-c4cccc(OC(F)(F)F)c4)n3n2)CC1
Summary of the method: as §1

saracatinib = compound: CN1CCN(CCOc2cc(OC3CCOCC3)c3c(Nc4c(Cl)ccc5c4OCO5)ncnc3c2)CC1 [saracatinib]
Summary of the method: as §1

sotrastaurin = compound: CN1CCN(c2nc(C3=C(c4c[nH]c5ccccc45)C(=O)NC3=O)c3ccccc3n2)CC1 [sotrastaurin]
Summary of the method: as §1

alvocidib = compound: CN1CC[C@H](c2c(O)cc(O)c3c(=O)cc(-c4ccccc4Cl)oc23)[C@H](O)C1 [alvocidib]
Summary of the method: as §1

Tubastatin A = compound: CN1CCc2c(c3ccccc3n2Cc2ccc(C(=O)NO)cc2)C1 [Tubastatin A]
Summary of the method: as §1

[8] = compound: CNC(=O)C1=CC=CC=C1NC2=NC(=NC=C2Cl)NC3=C(C=C(C=C3)N4CCOCC4)OC
Summary of the method: as §1

defactinib = compound: CNC(=O)c1ccc(Nc2ncc(C(F)(F)F)c(NCc3nccnc3N(C)S(C)(=O)=O)n2)cc1 [defactinib]
Summary of the method: as §1

rucaparib = compound: CNCc1ccc(-c2[nH]c3cc(F)cc4c3c2CCNC4=O)cc1 [rucaparib]
Summary of the method: as §1

[9] = compound: CNc1nc(-c2ccc3c(N)n[nH]c3c2)cc(N2C[C@@H](C(=O)NC3CCCCC3)CC[C@H]2C)n1
Summary of the method: as §1

encorafenib = compound: COC(=O)N[C@@H](C)CNc1nccc(-c2cn(C(C)C)nc2-c2cc(Cl)cc(NS(C)(=O)=O)c2F)n1 [encorafenib]
Summary of the method: as §1

[10] = compound: COC(=O)[C@H](CCSC)NC(=O)C1=C(C=C(C=C1)NC[C@H](CS)N)C2=CC=CC=C2
Summary of the method: as §1

Measured: log2 fold change

PCYT2 isoform 3 (UniProt Q99447)
inactive: [1] -0.004 | volasertib -0.025 | [2] -0.017 | epoxomicin 0.053 | [3] -0.028 | [4] -0.035 | [5] -0.008 | rosiglitazone 0.008 | [6] -0.068 | [7] 0.118 | saracatinib 0.003 | sotrastaurin 0.005 | alvocidib -0.014 | Tubastatin A -0.04 | [8] 0.068 | defactinib 0.003 | rucaparib -0.041 | [9] 0.005 | encorafenib 0.006 | [10] -0.035

PDHA1 isoform 4 (UniProt P08559)
inactive: [1] 0.071 | volasertib 0.182 | [2] 0.042 | epoxomicin 0.03 | [3] -0.001 | [4] 0 | [5] -0.032 | rosiglitazone 0.035 | [6] 0.101 | [7] 0.019 | saracatinib -0.163 | sotrastaurin -0.151 | alvocidib 0.048 | Tubastatin A 0.092 | [8] -0.042 | defactinib 0.174 | rucaparib 0.066 | [9] 0.183 | encorafenib 0.106 | [10] -0.036

PABPC4 isoform 3 (UniProt Q13310)
inactive: [1] 0.092 | volasertib 0.029 | [2] 0.062 | epoxomicin -0.098 | [3] 0.061 | [4] 0.056 | [5] -0.007 | rosiglitazone -0.036 | [6] 0.104 | [7] -0.022 | saracatinib 0.021 | sotrastaurin 0.016 | alvocidib 0.043 | Tubastatin A 0.045 | [8] 0.042 | defactinib 0.054 | rucaparib 0.2 | [9] -0.006 | encorafenib 0.003 | [10] 0.013

PBDC1 (UniProt Q9BVG4)
inactive: [1] -0.018 | volasertib -0.114 | [2] 0.061 | epoxomicin 0.03 | [3] 0.041 | [4] 0.022 | [5] 0.012 | rosiglitazone -0.002 | [6] -0.027 | [7] -0.108 | saracatinib 0.039 | sotrastaurin -0.056 | alvocidib -0.062 | Tubastatin A 0.018 | [8] 0.005 | defactinib -0.061 | rucaparib 0.069 | [9] -0.052 | encorafenib 0.012 | [10] -0.044

PCM1 isoform 5 (UniProt Q15154)
inactive: [1] 0.016 | volasertib -0.023 | [2] 0.007 | epoxomicin -0.1 | [3] 0.031 | [4] 0.077 | [5] -0.069 | rosiglitazone -0.098 | [6] 0.227 | [7] -0.026 | saracatinib -0.139 | sotrastaurin -0.088 | alvocidib 0.098 | Tubastatin A 0.051 | [8] -0.018 | defactinib 0.029 | rucaparib 0.166 | [9] 0.049 | encorafenib 0.13 | [10] 0.025

PES1 (UniProt O00541)
inactive: [1] 0.04 | volasertib -0.048 | [2] 0.077 | epoxomicin -0.087 | [3] -0.16 | [4] -0.035 | [5] 0.024 | rosiglitazone -0.06 | [6] 0.223 | [7] 0.176 | saracatinib -0.011 | sotrastaurin 0.018 | alvocidib 0.091 | Tubastatin A 0.068 | [8] -0.027 | defactinib 0.079 | rucaparib 0.213 | [9] 0.111 | encorafenib 0.169 | [10] -0.003

PANK1 (UniProt Q8TE04)
inactive: [1] 0.12 | volasertib -0.093 | [2] 0.072 | epoxomicin 0.082 | [3] 0.035 | [4] -0.016 | [5] 0.047 | rosiglitazone 0.048 | [6] -0.187 | [7] -0.085 | saracatinib -0.008 | sotrastaurin 0.069 | alvocidib -0.055 | Tubastatin A 0 | [8] -0.009 | defactinib -0.046 | rucaparib -0.169 | [9] 0.004 | encorafenib 0.046 | [10] -0.05

PEX1 (UniProt O43933)
inactive: [1] 0.014 | volasertib -0.022 | [2] -0.006 | epoxomicin 0.016 | [3] -0.04 | [4] -0.035 | [5] -0.018 | rosiglitazone 0.036 | [6] -0.029 | [7] 0.054 | saracatinib 0.018 | sotrastaurin 0.008 | alvocidib -0.033 | Tubastatin A 0.018 | [8] 0.002 | defactinib -0.046 | rucaparib 0.032 | [9] -0.001 | encorafenib 0.005 | [10] -0.08

PCYOX1L (UniProt Q8NBM8)
inactive: [1] -0.051 | volasertib 0.037 | [2] -0.03 | epoxomicin -0.029 | [3] -0.005 | [4] -0.022 | [5] -0.027 | rosiglitazone 0.003 | [6] -0.052 | [7] 0.117 | saracatinib 0.056 | sotrastaurin 0.085 | alvocidib 0.015 | Tubastatin A -0.008 | [8] 0.005 | defactinib -0.02 | rucaparib 0.055 | [9] -0.029 | encorafenib -0.064 | [10] -0.015

PAK2 (UniProt Q13177)
inactive: [1] -0.043 | volasertib -0.017 | [2] 0.032 | epoxomicin 0.006 | [3] 0.026 | [4] -0.027 | [5] 0.011 | rosiglitazone 0.005 | [6] -0.08 | [7] -0.026 | saracatinib -0.002 | sotrastaurin 0.007 | alvocidib -0.033 | Tubastatin A 0.004 | [8] 0.017 | defactinib -0.028 | rucaparib -0.016 | [9] 0.004 | encorafenib -0.005 | [10] 0.006

PAICS (UniProt P22234)
inactive: [1] -0.019 | volasertib 0.103 | [2] -0.077 | epoxomicin -0.004 | [3] -0.001 | [4] -0.014 | [5] -0.03 | rosiglitazone 0 | [6] -0.053 | [7] -0.005 | saracatinib -0.005 | sotrastaurin 0.051 | alvocidib 0.005 | Tubastatin A -0.016 | [8] 0.048 | defactinib 0.001 | rucaparib -0.029 | [9] -0.03 | encorafenib -0.04 | [10] 0.034

PDXP (UniProt Q96GD0)
inactive: [1] 0.016 | volasertib 0.022 | [2] -0.065 | epoxomicin -0.04 | [3] -0.022 | [4] 0 | [5] -0.014 | rosiglitazone 0.006 | [6] -0.03 | [7] -0.011 | saracatinib 0.005 | sotrastaurin 0.035 | alvocidib 0.01 | Tubastatin A -0.034 | [8] -0.046 | defactinib -0.015 | rucaparib -0.026 | [9] -0.099 | encorafenib -0.03 | [10] 0.026

PAFAH1B1 (UniProt P43034)
inactive: [1] 0.012 | volasertib 0.023 | [2] -0.035 | epoxomicin -0.032 | [3] 0.016 | [4] -0.015 | [5] 0 | rosiglitazone 0.006 | [6] -0.063 | [7] -0.01 | saracatinib 0.033 | sotrastaurin 0.063 | alvocidib -0.029 | Tubastatin A -0.047 | [8] -0.015 | defactinib -0.033 | rucaparib -0.031 | [9] -0.004 | encorafenib -0.022 | [10] -0.013

PDK1 (UniProt Q15118)
inactive: [1] 0.076 | volasertib 0.202 | [2] -0.024 | epoxomicin 0.005 | [3] -0.106 | [4] -0.078 | [5] 0.038 | rosiglitazone 0.196 | [6] -0.032 | [7] 0.099 | saracatinib -0.009 | sotrastaurin 0.066 | alvocidib 0.002 | Tubastatin A -0.019 | [8] 0.077 | defactinib 0.043 | rucaparib 0.017 | [9] 0.129 | encorafenib -0.148 | [10] -0.037

PACSIN2 (UniProt Q9UNF0)
inactive: [1] -0.003 | volasertib -0.024 | [2] 0.097 | epoxomicin -0.021 | [3] -0.121 | [4] -0.057 | [5] 0.092 | rosiglitazone 0.103 | [6] 0.017 | [7] -0.158 | saracatinib -0.149 | sotrastaurin -0.155 | alvocidib -0.194 | Tubastatin A 0.066 | [8] -0.106 | defactinib -0.131 | rucaparib 0.058 | [9] 0.128 | encorafenib 0.056 | [10] -0.061

Two consecutive records already listed:
PBDC1 (UniProt Q9BVG4)
inactive: [1] -0.018 | volasertib -0.114 | [2] 0.061 | epoxomicin 0.03 | [3] 0.041 | [4] 0.022 | [5] 0.012 | rosiglitazone -0.002 | [6] -0.027 | [7] -0.108 | saracatinib 0.039 | sotrastaurin -0.056 | alvocidib -0.062 | Tubastatin A 0.018 | [8] 0.005 | defactinib -0.061 | rucaparib 0.069 | [9] -0.052 | encorafenib 0.012 | [10] -0.044

PCM1 isoform 5 (UniProt Q15154)
inactive: [1] 0.016 | volasertib -0.023 | [2] 0.007 | epoxomicin -0.1 | [3] 0.031 | [4] 0.077 | [5] -0.069 | rosiglitazone -0.098 | [6] 0.227 | [7] -0.026 | saracatinib -0.139 | sotrastaurin -0.088 | alvocidib 0.098 | Tubastatin A 0.051 | [8] -0.018 | defactinib 0.029 | rucaparib 0.166 | [9] 0.049 | encorafenib 0.13 | [10] 0.025

Next records follow.

PAGR1 (UniProt Q9BTK6)
inactive: [1] 0.024 | volasertib 0.174 | [2] 0.027 | epoxomicin 0.054 | [3] 0.003 | [4] -0.029 | [5] 0.03 | rosiglitazone 0.005 | [6] 0.059 | [7] 0.079 | saracatinib 0.011 | sotrastaurin -0.017 | alvocidib 0.059 | Tubastatin A 0.045 | [8] -0.04 | defactinib -0.027 | rucaparib -0.037 | [9] -0.031 | encorafenib 0.038 | [10] -0.028
